From publication PMC12735751

Tests used:
Experiment in all cases: EMSA
[1] = target: T1, RRP6 (Lactiplantibacillus plantarum 163) (UniProt F9UPR2); settings: EMSA: 10 mM HEPES pH 7.9, 0.1 mM spermidine, 0.4 mM MgCl2, 50 mM NaCl, 0.1 mM ZnCl2, 0.4 mM DTT, 8% glycerol, 37 °C 30 min, 50 ng FAM probe, 4% gel; recombinant protein; label: FAM
T1 sequence: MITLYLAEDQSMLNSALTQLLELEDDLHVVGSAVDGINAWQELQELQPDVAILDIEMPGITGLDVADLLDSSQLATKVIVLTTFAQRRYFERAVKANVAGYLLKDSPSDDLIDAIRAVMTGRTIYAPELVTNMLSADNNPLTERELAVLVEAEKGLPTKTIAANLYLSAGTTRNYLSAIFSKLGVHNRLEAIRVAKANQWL

[2] = target: T2, RRP6-ΔY175 Y175A (Lactiplantibacillus plantarum 163) (UniProt F9UPR2); settings: EMSA: 10 mM HEPES pH 7.9, 0.1 mM spermidine, 0.4 mM MgCl2, 50 mM NaCl, 0.1 mM ZnCl2, 0.4 mM DTT, 8% glycerol, 37 °C 30 min, 50 ng FAM probe, 4% gel; recombinant protein; residues 1-201; protein details: His-tag; label: FAM
T2 sequence (looked up): T1 sequence with I60M, L68R, D70A, Y175A

[3] = target: T3, RRP6-ΔR144 R144A (Lactiplantibacillus plantarum 163) (UniProt F9UPR2); settings: EMSA: 10 mM HEPES pH 7.9, 0.1 mM spermidine, 0.4 mM MgCl2, 50 mM NaCl, 0.1 mM ZnCl2, 0.4 mM DTT, 8% glycerol, 37 °C 30 min, 50 ng FAM probe, 4% gel; recombinant protein; residues 1-201; protein details: His-tag; label: FAM
T3 sequence (looked up): T1 sequence with I60M, L68R, D70A, R144A

[4] = target: T4, RRP6-ΔT171 T171A (Lactiplantibacillus plantarum 163) (UniProt F9UPR2); settings: EMSA: 10 mM HEPES pH 7.9, 0.1 mM spermidine, 0.4 mM MgCl2, 50 mM NaCl, 0.1 mM ZnCl2, 0.4 mM DTT, 8% glycerol, 37 °C 30 min, 50 ng FAM probe, 4% gel; recombinant protein; residues 1-201; protein details: His-tag; label: FAM
T4 sequence (looked up): T1 sequence with I60M, L68R, D70A, T171A

[5] = target: T5, RRP6-ΔQ73 Q73A (Lactiplantibacillus plantarum 163) (UniProt F9UPR2); settings: weakest of the four mutants, some unbound probe remains; EMSA: 10 mM HEPES pH 7.9, 0.1 mM spermidine, 0.4 mM MgCl2, 50 mM NaCl, 0.1 mM ZnCl2, 0.4 mM DTT, 8% glycerol, 37 °C 30 min, 50 ng FAM probe, 4% gel; recombinant protein; residues 1-201; protein details: His-tag; label: FAM
T5 sequence (looked up): T1 sequence with I60M, L68R, D70A, Q73A

Row | Sequence | binding result [1] | binding result [2] | binding result [3] | binding result [4] | binding result [5]
1 | ACGTTAATAGATAGTTGGC (double strand) [Site I (CK1)] | binds | binds more weakly | binds more weakly | binds more weakly | binds more weakly
2 | TAATTGGTGAGGGGAGTACAAG (double strand) [Site II (CK2)] | binds | binds more weakly | binds more weakly | binds more weakly | binds more weakly

Residue numbers refer to the chain shown, from its start. For some of these results: Weaker means in comparison with the reference protein, sequence or condition of that experiment. Tags and fusion partners may be left off the protein sequences shown. For some of these results: For at least one entry, the source does not settle the construct or the ends of the probe. For some of these results: At least one verdict was read from the data and is not stated in words by the source.
